Hit rate of the full screen: of about 52,000 sequences, about 210 (0.4%) were called active.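 How the source made its calls: active means gene whose silencing raises cell survival under the drug, median off-target-corrected z-score across its silencing RNAs 2 or more; inactive means the rest.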 The list shows a part of the results.

A short description of this assay: Resistance to Poly (ADP-Ribose) Polymerase inhibitor: Gene Identification via Genome-wide siRNA Screen. As to conditions: mouse BRCA2 R2336H ES cells, olaparib, CellTiter-Glo viability; active compounds read high. The method, boiled down: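 Mouse BRCA2 R2336H ES cells were reverse-transfected with siRNA (20 nM final), treated at 48 h with 500 nM olaparib, and read by CellTiter-Glo after 72 h. Scores: MAD-based z per siRNA, median per gene, seed off-target correction.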
(ATP-based viability assays read luminescence as a measure of living cells.)
For GGAUUUGUCAUCCACUUCUTT against Sez6, the z-score is inactive: -1.18.
For GCUAAACAGACAACUCAACTT against Rufy2, the z-score is inactive: 0.416.
To GGAGCUAACUAACGAGAUGTT against T belongs inactive: 0.0643; to GCAAUUAUAACUUAGAAGGTT against BC022146, inactive: -0.4.
Regarding CCUAAAAGCUCAUAGAUUCTT against Cidec, the z-score is inactive: 0.471.
Under CCGUUGUAAUAACAUUGGCTT against Lipg stands inactive: 0.203; under GGAGUGAAGGUUCAGAUCCTT against Accn1, inactive: -1.5; under GGAAAACAACACGAUGAAATT against Tex13, inactive: -0.431.
As to GGCCUACCUGGUUGAGAAATT against Spam1, the z-score was inactive: -0.147.
GCCACCAUUAAAAGACUGATT against Gdnf: the z-score was inactive: -0.153.
On to GGAGUAUCAUUUCAUCUCATT against Mpp1, for which the z-score was inactive: 0.0567.
As to GGUAUUGUGAAACGUACACTT against Ky, the z-score was inactive: 0.992.
To GGGCUUGAAAUUGAAAUGUTT against Ccl9 belongs inactive: -0.697; to GCAAUUAGACAGCAUUCAUTT against Il16, inactive: -0.515.
To GGACAAGAAUCCUUGAGUGTT against Nxt1 belongs inactive: 0.162; to “GGAUUGACAAAUAGCUUGUTT against B430209F14Rik”, inactive: -0.636; to GGUUAAAAAUGCCAUUAGATT against Olfr1233, inactive: 0.0788.
Under GGACUGUUUGAACAUCUGGTT against Tomm7 stands inactive: 0.303; under GGCUGUGGUAUUUUUGGUUTT against AW146242, inactive: 0.638.
With GGGAAUACGGAACCUUCUUTT against Olfr683, the z-score is inactive: 1.13.
Consider GGAGGAAAGAAGUCCUACATT against Ear5, for which the z-score is inactive: -2.63.
Under GGAAAAAUUGCUUCUGACCTT against Rad51l1 stands inactive: -0.179.
Under GGAUGAGUUUGAACUAUCCTT against Kcnip2 stands inactive: 0.109; under GGAGGUAUACAUCACCACATT against Lrdd, inactive: -0.0951; under GGUUGACACUGUUGCUUAUTT against Ofcc1, inactive: 1.07.
Under GGUGCACUCGUACUUGACUTT against Mgat4b stands inactive: 0.429; under “GGAAGGUGAUGAAGGAUCGTT against 3110048E14Rik”, inactive: 0.118; under CCUCUUAUCUCACAUGCUATT against Ica1, inactive: 2.23.
Take GCGGCUCAAACUCAUUUUGTT against LOC225594: the z-score is inactive: 0.828.

The values are drawn from PubChem BioAssay AID1347423 (Functional Genomics Laboratory (NCATS/FGL), 2020).
